In paper PMC4526233:
No constants are given. Whether binding was seen depends on the method and setting. Binding seen in cells or lysates may run through a third protein. Here binding means that the protein was enriched with, or labelled near, the bait; the list need not be complete. Tags and fused reporters may be left off the sequences shown.

Amino acid sequences for entries named in this document (tags omitted).
UniProt P11142: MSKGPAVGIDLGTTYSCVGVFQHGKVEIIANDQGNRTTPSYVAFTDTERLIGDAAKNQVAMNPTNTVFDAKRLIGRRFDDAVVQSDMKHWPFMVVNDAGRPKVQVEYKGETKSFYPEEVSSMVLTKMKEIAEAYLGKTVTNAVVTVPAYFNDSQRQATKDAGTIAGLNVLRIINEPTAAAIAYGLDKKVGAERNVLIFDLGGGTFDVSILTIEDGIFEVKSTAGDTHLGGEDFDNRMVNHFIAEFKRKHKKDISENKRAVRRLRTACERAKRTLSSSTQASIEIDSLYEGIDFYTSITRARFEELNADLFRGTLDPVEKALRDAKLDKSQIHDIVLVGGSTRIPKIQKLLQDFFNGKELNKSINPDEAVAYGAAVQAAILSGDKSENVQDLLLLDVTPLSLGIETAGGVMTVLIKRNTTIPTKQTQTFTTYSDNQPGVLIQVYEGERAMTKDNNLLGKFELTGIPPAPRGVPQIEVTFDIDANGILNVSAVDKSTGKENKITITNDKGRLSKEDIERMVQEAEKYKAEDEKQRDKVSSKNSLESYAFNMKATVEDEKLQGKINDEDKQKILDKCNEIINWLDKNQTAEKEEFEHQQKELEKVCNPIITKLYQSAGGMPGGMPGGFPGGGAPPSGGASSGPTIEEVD
UniProt Q92598: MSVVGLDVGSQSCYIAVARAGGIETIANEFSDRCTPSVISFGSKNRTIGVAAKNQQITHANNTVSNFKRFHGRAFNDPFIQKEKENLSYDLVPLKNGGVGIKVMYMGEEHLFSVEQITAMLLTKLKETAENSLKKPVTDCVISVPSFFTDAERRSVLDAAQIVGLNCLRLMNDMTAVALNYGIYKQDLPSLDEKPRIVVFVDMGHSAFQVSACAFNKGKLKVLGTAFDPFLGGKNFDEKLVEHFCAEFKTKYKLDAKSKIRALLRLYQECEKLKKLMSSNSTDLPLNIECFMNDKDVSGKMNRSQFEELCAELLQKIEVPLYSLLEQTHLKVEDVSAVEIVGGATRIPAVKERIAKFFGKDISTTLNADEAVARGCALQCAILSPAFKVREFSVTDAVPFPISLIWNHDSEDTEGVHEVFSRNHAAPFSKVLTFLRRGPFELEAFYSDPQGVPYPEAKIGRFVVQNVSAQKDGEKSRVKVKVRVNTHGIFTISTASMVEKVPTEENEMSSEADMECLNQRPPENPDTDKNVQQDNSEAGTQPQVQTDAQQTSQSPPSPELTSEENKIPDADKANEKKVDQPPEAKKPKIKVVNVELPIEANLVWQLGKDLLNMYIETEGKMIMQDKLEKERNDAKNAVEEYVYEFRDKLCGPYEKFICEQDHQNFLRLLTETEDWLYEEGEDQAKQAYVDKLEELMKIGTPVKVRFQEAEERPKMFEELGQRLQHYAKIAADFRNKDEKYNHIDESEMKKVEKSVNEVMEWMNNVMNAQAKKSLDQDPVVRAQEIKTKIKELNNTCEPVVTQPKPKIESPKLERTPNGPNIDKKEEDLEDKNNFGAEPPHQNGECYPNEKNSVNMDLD

Molecular target: T1, 3x-FLAG tagged B14 (B14-3xF) (UniProt Q8TBM8)
T1 sequence: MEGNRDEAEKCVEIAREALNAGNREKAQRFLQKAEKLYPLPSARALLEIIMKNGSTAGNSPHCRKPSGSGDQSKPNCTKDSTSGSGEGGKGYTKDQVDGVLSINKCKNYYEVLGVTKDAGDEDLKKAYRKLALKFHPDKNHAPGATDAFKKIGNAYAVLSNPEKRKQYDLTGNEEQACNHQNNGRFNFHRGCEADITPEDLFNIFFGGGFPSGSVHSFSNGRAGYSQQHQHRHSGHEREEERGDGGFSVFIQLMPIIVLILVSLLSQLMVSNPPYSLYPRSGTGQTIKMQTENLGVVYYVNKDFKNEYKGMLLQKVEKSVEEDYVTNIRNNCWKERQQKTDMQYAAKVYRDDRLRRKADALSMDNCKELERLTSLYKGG
Test: affinity purification with mass spectrometry

| binding | Substance |
| --- | --- |
| binds | Hsc70 (endogenous, Flp-In 293 T-Rex cells) (from UniProt P11142 1-646) |
| binds | Hsp105 (endogenous, Flp-In 293 T-Rex cells) (from UniProt Q92598 1-858) |
